These results are taken from patent publication US20190218253A1 (NATIONAL UNIVERSITY OF SINGAPORE, published 2019).

The chains behind the UniProt entries cited, without tags or fusion partners.
UniProt Q09028: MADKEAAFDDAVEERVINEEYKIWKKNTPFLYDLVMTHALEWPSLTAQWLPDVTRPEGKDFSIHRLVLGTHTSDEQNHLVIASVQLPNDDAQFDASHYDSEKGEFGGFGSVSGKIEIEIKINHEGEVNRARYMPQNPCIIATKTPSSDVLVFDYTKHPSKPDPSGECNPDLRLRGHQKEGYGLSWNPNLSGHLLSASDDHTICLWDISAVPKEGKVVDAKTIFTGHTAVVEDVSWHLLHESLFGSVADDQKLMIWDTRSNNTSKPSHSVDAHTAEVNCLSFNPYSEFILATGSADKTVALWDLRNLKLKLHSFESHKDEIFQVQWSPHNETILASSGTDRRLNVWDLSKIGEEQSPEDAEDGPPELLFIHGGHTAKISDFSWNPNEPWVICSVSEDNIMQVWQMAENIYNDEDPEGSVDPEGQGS

Results are given in words; binding and its absence hold for the method and conditions named. Some binding calls cover weakened binding; strength is not graded here.

For one assay, the target named is retinoblastoma binding protein 4 (RBBp4) (UniProt Q09028). Put plainly: SPR sensorgram (FIG. 1B).
For the molecule MSRRKQAKPQHI [WT SALL4 peptide (1-12 aa), …], the binding result was “binds”.

For the next assay the target is unchanged. The assay can be described thus: isothermal titration calorimetry.
In the case of MSRRKQAKPQHI [WT SALL4 peptide (1-12 aa), …], the binding entry is on record as “binds”.

For a further assay the target is unchanged. The assay can be described thus: fluorescence polarization competition. In general terms: In fluorescence polarisation assays a small probe gives low polarisation when free and higher when bound to something large.
Consider RRKQAKPQAI (N-terminal acetyl (Ac-), C-terminal amide (-NH2)) [Peptide 15 (Ac-…-NH2)], for which the binding entry was “binds”. Still for that read-out and setting: then RRKQAAPQHI (N-terminal acetyl (Ac-), C-terminal amide (-NH2)) [Peptide 12 (Ac-…-NH2)], with “binds”; and SRRKQAKPQHI (N-terminal acetyl (Ac-), C-terminal amide (-NH2)) [Peptide 5 (Ac-…-NH2)], with “binds”; and MSRRKQAKP (N-terminal acetyl (Ac-), C-terminal amide (-NH2)) [Peptide 4 (Ac-…-NH2)], with “binds”.

As for MSRRKQAKPQ (N-terminal acetyl (Ac-), C-terminal amide (-NH2)) [Peptide 3 (Ac-…-NH2)], the binding entry is listed as “binds”. As for RRKQAKFQHI (N-terminal acetyl (Ac-), C-terminal amide (-NH2)) [Peptide 34 (Ac-…-NH2)], the binding entry is listed as “binds”. Still for that read-out and setting: the entry for RRKLAKPQHI (N-terminal acetyl (Ac-), C-terminal amide (-NH2)) [Peptide 23 (Ac-…-NH2)] is “binds”; for RRKQAKPAHI (N-terminal acetyl (Ac-), C-terminal amide (-NH2)) [Peptide 14 (Ac-…-NH2)] it is “binds”; for MSRRKQAKPQH (N-terminal acetyl (Ac-), C-terminal amide (-NH2)) [Peptide 2 (Ac-…-NH2)] it is “binds”. In the case of RRKFAKPQHI (N-terminal acetyl (Ac-), C-terminal amide (-NH2)) [Peptide 24 (Ac-…-NH2)], the binding entry is on record as “binds”. For the molecule RRKAAKPQHI (N-terminal acetyl (Ac-), C-terminal amide (-NH2)) [Peptide 11 (Ac-…-NH2)], the binding entry is recorded as “binds”. Take RRKQAKPQHA (N-terminal acetyl (Ac-), C-terminal amide (-NH2)) [Peptide 16 (Ac-…-NH2)]: the binding result was “binds”.

On to RRKQAKAQHI (N-terminal acetyl (Ac-), C-terminal amide (-NH2)) [Peptide 13 (Ac-…-NH2)], for which the binding result is “binds”.
